Drawing on patent US20240190989A1, this text covers binding for one molecule.

The assay concerns the target human CD137 ECD-mIgG2a (human). Nature of the assay: ELISA on coated human CD137 ECD-mIgG2a in the presence of serially diluted human CD137 ligand ECD-mIgG2a [panel A]. On the technique in general: In an ELISA, binding on a coated surface is turned into a signal by an enzyme label.

No constants are given. Whether binding was seen depends on the method and setting. Some entries that bind do so weakly or less than the wild type. Tags and fused reporters may be left off the sequences shown.

B1: BGA-5623 with a human IgG4 Fc fusion (Fc fusion)
chain: EVQLLESGGGLVQPGGSLRLSCAASGFTVSAEDVGWVRQAPGKGLEWVSAILDKGGSTYYAESVKGRFTISRDNAKNTLYLQMSSLRAEDTAVYYCARIVYHAGGGVTFDTRGQGTQVTVSSESKYGPPCPPCPAPEFLGGPSVFLFPPKPKDTLMISRTPEVTCVVVDVSQEDPEVQFNWYVDGVEVHNAKTKPREEQFNSTYRWSVLTVLHQDWLNGKEYKCKVSNKGLPSSIEKTISKAKGQPREPQVYTLPPSQEEMTKNQVSLTCLVKGFYPSDIAVEWESNGQPENNYKTTPPVLDSDGSFFLYSRLTVDKSRWQEGNVFSCSVMHEALHNHYTQKSLSLSLGK
Consider B1, for which the binding entry is reported as “binds”.
